Drawing on paper PMC8357812, this text covers binding for one substance.

Protein sequences, listed by entry. Tags and fused reporters are not part of them.
UniProt Q07812: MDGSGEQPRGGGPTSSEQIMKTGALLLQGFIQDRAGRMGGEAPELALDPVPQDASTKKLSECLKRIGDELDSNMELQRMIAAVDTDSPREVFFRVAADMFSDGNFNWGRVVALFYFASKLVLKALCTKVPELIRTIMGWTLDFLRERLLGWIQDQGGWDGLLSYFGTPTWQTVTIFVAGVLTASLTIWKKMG
UniProt Q70CQ3: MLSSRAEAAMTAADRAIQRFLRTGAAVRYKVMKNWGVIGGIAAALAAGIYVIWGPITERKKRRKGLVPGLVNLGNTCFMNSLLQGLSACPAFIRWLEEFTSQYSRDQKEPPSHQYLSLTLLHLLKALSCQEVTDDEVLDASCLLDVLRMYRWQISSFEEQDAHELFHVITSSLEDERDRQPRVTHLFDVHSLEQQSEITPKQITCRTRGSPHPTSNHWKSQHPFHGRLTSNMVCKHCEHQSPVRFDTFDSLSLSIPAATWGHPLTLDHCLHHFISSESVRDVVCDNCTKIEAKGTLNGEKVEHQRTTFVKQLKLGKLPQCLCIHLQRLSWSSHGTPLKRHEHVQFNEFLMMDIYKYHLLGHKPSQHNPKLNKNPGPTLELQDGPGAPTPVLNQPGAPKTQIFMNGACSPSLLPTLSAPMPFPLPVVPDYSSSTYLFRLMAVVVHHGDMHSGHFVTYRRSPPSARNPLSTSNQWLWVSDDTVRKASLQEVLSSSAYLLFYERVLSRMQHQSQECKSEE

The experiment deals with Bax (human (endogenous in A549 and H1299)) (UniProt Q07812). Nature of the experiment: co-IP; endogenous Bax immunoprecipitated with anti-Bax antibody coupled to Dynabeads M-270 Epoxy from A549 or H1299 cell lysates, rotated at 4 °C for 2 h; western blotting; also from USP30 knock-down H1299 cells (binding decreased). (A western blot detects proteins with antibodies after separation by electrophoresis.)

These are yes or no findings as the source states them, for the method shown. Binding seen in cells or lysates may run through a third protein. Some entries that bind do so weakly or less than the wild type.

On to “USP30 (from UniProt Q70CQ3 1-517) (enzyme)”, for which the binding result is reported as “binds”.
